This passage reports binding results from US20040132045A1 (MERCK, published 2004).

The chains behind the UniProt entries cited, without tags or fusion partners. Where a name states a change or a piece, a line headed by the entry shows the natural chain unless it says otherwise.
UniProt Q8MJ88: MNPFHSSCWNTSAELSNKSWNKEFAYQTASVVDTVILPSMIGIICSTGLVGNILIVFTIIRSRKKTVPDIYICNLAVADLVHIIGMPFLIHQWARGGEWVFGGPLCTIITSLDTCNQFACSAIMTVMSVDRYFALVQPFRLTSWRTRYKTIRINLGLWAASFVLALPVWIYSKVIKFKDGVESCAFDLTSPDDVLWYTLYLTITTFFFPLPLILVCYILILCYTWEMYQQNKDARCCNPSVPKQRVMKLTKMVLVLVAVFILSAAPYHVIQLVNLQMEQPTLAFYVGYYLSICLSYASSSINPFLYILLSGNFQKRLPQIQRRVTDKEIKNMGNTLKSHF
UniProt P20382: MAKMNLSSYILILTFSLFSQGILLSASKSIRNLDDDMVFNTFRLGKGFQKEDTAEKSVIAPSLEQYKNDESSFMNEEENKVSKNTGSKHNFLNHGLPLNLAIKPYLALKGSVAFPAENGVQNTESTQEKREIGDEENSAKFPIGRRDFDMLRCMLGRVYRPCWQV

Results are given in words; binding and its absence hold for the method and conditions named. Some results given as binding are weak or reduced against the parent protein; the word gives no strength.

For assay [1], the target named is ferret MCH-2R (ferret). Put plainly: radioligand binding assay on membranes of transfected COS-7 cells.
Assay [2] has as its target rhesus monkey MCH-2R (melanin-concentrating hormone type 2 receptor) (rhesus monkey) (UniProt Q8MJ88). Description: radioligand binding to transfected HEK293T monolayer cells.

For the substance “Melanin-concentrating hormone (MCH) (from UniProt P20382 147-165) (peptide)”, in assay [1], the binding entry was “binds”.

“[^125I]-MCH (from UniProt P20382 147-165) (peptide)”: in assay [2], the binding result was “binds”.
